The exact form of at least one protein or probe is not confirmed. For some assays here: Where a protein sequence is shown, tags need not be part of it.
Assays:
[1] = target: cardiac troponin I (cTn-I) (human) (UniProt P19429); assay: fiber-based SPR; conditions: 100 nM protein; 3' thiol; Detection buffer: 25 mM Tris base, 192 mM glycine, 0.05% Tween 20, 0.1% BSA, 2 mM CaCl2, 100 mM NaCl, pH 8.0; binding temperature not stated (RI calibration at 20 C); recombinant protein; single-stranded DNA
[2] = target: T1, C-reactive protein (CRP) (human) (UniProt P02741); assay: fiber-based SPR; conditions: 100 nM protein; 3' thiol; Detection buffer: 25 mM Tris base, 192 mM glycine, 0.05% Tween 20, 0.1% BSA, 2 mM CaCl2, 100 mM NaCl, pH 8.0; binding temperature not stated (RI calibration at 20 C); recombinant protein; single-stranded DNA
T1 sequence (looked up, limits assumed): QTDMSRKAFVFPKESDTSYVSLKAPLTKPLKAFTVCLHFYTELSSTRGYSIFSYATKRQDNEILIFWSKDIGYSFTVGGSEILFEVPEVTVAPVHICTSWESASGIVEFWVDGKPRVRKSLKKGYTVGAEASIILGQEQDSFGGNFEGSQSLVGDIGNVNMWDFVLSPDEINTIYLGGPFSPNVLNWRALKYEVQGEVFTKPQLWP

Sequence	binding signal (% of specific response) [1]	binding signal (% of specific response) [2]
GGCAGGAAGACAAACACGATGGGGGGGTATGATTTGATGTGGTTGTGCATGATCGTGGTCTGTGGTGCTGTTTTT [CRP aptamer]	< 20	–
CGAAGGGGATTCGAGGGGTGATTGCGTGCTCCATTTGGTGTTTTT [cTn-I aptamer]	–	< 20
